Here are results for 17 compounds from PubChem BioAssay AID493014 (National Center for Advancing Translational Sciences (NCATS), 2011).

Each structure is given as a SMILES string. The list shows a part of the results. Shown are side measurements of this screen, not its main read-out; they come without a call. The list favours compounds with an active or inconclusive main result. Potencies come from curve fits of mixed quality, noted in brackets.

This assay in a line: qHTS Assay to Find Inhibitors of Chronic Active B-Cell Receptor Signaling. The settings on record: ABC-DLBCL IkBa-CBG/CBR reporter, luminescence ratio (green luciferase fused to IkBa over red control in TMD8 lymphoma cells), 4 h. The gist of the method: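 Cell line TMD8 (human ABC DLBCL), stably expressing tet-inducible CBG68-IkBa fusion and CBR; IMDM/0.5% FBS; cpd up to 46 uM; dox induction, 4 h, 37C/5% CO2; dual luminescence; green/red ratio; MG132 control.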
On the technique in general: qHTS replaces the single test concentration by a dilution series.

Where [1] appears, read: measured here: CBR red luminescence, cell number.

As usually defined, the AC50 is the concentration at which the activity in the assay is half-maximal. As to `Cc1ccc(NC(=O)CCn2nnc3ccccc32)cc1`, under setting [1], the AC50 is 14.1 µM [rising, partial curve, poor fit].
In the case of `CCc1ccc(Nc2cnn(-c3nc4ccccc4s3)c(=O)c2Cl)cc1`, the AC50 was 8.2 µM [rising, partial curve, poor fit] under setting [1] and 23.1 µM [rising, partial curve, poor fit] (measured here: IkBa-CBG green luminescence).
With `CCOC(=O)CCCc1ccc(/C(C)=N/NC(N)=S)cc1`, under setting [1], the AC50 is 1.78 µM [falling, partial curve].
`COc1cccc(CNC(=O)N2CCN(c3ccccc3)CC2)c1`: the AC50 under setting [1] is 5.01 µM [falling, full curve].
The same measure, in the same setting: as for `O=C(NCC1CCCO1)/C(=C\c1ccco1)NC(=O)c1ccccc1` (stereo not drawn), the figure is 3.16 µM [falling, partial curve, poor fit].
With `CN1CCN(c2ccc(NC(=O)c3ccc(-c4cccc([N+](=O)[O-])c4)o3)cc2)CC1`, the AC50 under setting [1] was 35.5 µM [falling, single point].
Consider `CCc1ccc(NC(=O)CSc2nc3n[nH]c(C)c3c(=N)n2-c2cccc(OC)c2)cc1`, for which the AC50 under setting [1] was 32.6 µM [falling, single point].
Regarding `O=[N+]([O-])c1cc([N+](=O)[O-])c(Oc2c(F)cc(F)cc2F)cc1NN1CCCCC1`, under setting [1], the AC50 was 31.6 µM [falling, partial curve, poor fit].
Consider `O=C(O)C1CC(=O)N(c2ccc(Br)cc2)C1` (stereo not drawn), for which the AC50 under setting [1] was 29.1 µM [falling, single point].
Regarding `Cc1ccsc1/C=N/Nc1nc(Cl)c(Cl)cc1Cl`, under setting [1], the AC50 was 0.316 µM [rising, full curve].
On the same count and under the same terms, as for `O=C(Nc1ccc(Cl)cc1F)c1cc(S(=O)(=O)NCc2ccc3c(c2)OCO3)ccc1F`, the figure is 35.5 µM [rising, single point].
Still for that read-out and setting: as for `COc1ccc(C2CC(c3ccccc3F)=NN2c2ccc(S(N)(=O)=O)cc2)cc1` (stereo not drawn), the figure is 29.1 µM [rising, single point]; as for `CN(CC(=O)Nc1ccc(Cl)c(C(F)(F)F)c1)C(=O)CCCNC(=O)c1ccc(Cl)cc1`, 0.411 µM [falling, full curve].
As to `CCCN(c1ccc(OCC)cc1)S(=O)(=O)c1ccc2c(c1)NC(=O)CO2`, the AC50 under setting [1] was 31.6 µM [falling, partial curve, poor fit].
`Cc1cccc(NC(=O)c2nc[nH]c2C(=O)N[C@@H](Cc2ccccc2)C(=O)OC(C)(C)C)c1`: under setting [1], the AC50 was 22.4 µM [rising, single point].
On the same count and under the same terms, as for `C[C@H](NC(=O)c1nc[nH]c1C(=O)NCc1ccccc1)c1ccccc1`, the figure is 32.6 µM [falling, single point]; as for `CCSC1(SCC)N=C(N)C2(C#N)C(c3ccc(OC)c(OC)c3OC)C12C#N` (stereo not drawn), 18.4 µM [falling, partial curve].
